The supplement of paper PMC11264405

Experiments:
Experiment in all cases: minimum inhibitory concentration
fidaxomicin = compound: CCc1c(Cl)c(O)c(Cl)c(O)c1C(=O)O[C@H]1[C@H](O)[C@H](OC)[C@H](OC/C2=C\C=C\C[C@H](O)/C(C)=C/[C@H](CC)[C@@H](O[C@@H]3OC(C)(C)[C@@H](OC(=O)C(C)C)[C@H](O)[C@@H]3O)/C(C)=C/C(C)=C/C[C@@H]([C@@H](C)O)OC2=O)O[C@@H]1C [fidaxomicin]
linezolid = compound: CC(=O)NC[C@H]1CN(c2ccc(N3CCOCC3)c(F)c2)C(=O)O1 [linezolid]
rifampicin = compound: CO[C@H]1/C=C/O[C@@]2(C)Oc3c(C)c(O)c4c(O)c(c(/C=N/N5CCN(C)CC5)c(O)c4c3C2=O)NC(=O)/C(C)=C\C=C\[C@H](C)[C@H](O)[C@@H](C)[C@@H](O)[C@@H](C)[C@H](OC(C)=O)[C@@H]1C [rifampicin]
vancomycin = compound: CN[C@H](CC(C)C)C(=O)N[C@H]1C(=O)N[C@@H](CC(N)=O)C(=O)N[C@H]2C(=O)N[C@H]3C(=O)N[C@H](C(=O)N[C@H](C(=O)O)c4cc(O)cc(O)c4-c4cc3ccc4O)[C@H](O)c3ccc(c(Cl)c3)Oc3cc2cc(c3O[C@@H]2O[C@H](CO)[C@@H](O)[C@H](O)[C@H]2O[C@H]2C[C@](C)(N)[C@H](O)[C@H](C)O2)Oc2ccc(cc2Cl)[C@H]1O [vancomycin]
metronidazole = compound: Cc1ncc([N+](=O)[O-])n1CCO [metronidazole]
meropenem = compound: C[C@@H](O)[C@H]1C(=O)N2C(C(=O)O)=C(S[C@@H]3CN[C@H](C(=O)N(C)C)C3)[C@H](C)[C@H]12 [meropenem]
tigecycline = compound: CN(C)c1cc(NC(=O)CNC(C)(C)C)c(O)c2c1C[C@H]1C[C@H]3[C@H](N(C)C)C(O)=C(C(N)=O)C(=O)[C@@]3(O)C(O)=C1C2=O [tigecycline]
clindamycin = compound: CCC[C@@H]1C[C@@H](C(=O)N[C@@H]([C@H]2O[C@H](SC)[C@H](O)[C@@H](O)[C@H]2O)[C@H](C)Cl)N(C)C1 [clindamycin]
imipenem = compound: C[C@@H](O)[C@H]1C(=O)N2C(C(=O)O)=C(SCCNC=N)C[C@H]12 [imipenem]

Test System | minimum inhibitory concentration (fidaxomicin) | minimum inhibitory concentration (linezolid) | minimum inhibitory concentration (rifampicin) | minimum inhibitory concentration (vancomycin) | minimum inhibitory concentration (metronidazole) | minimum inhibitory concentration (meropenem) | minimum inhibitory concentration (tigecycline) | minimum inhibitory concentration (clindamycin) | minimum inhibitory concentration (imipenem)
Clostridioides difficile PCR ribotype 027 isolate #122 (European region: East, country: Poland, isolate source: Human, ribotype: 027) | 0.06 mg/L | 2 mg/L | > 32000 ng/mL | 0.5 mg/L | 2 mg/L | 4 mg/L | < 0.03 mg/L | 4 mg/L | 4 mg/L
Clostridioides difficile PCR ribotype 027 isolate #123 (European region: North, country: UK, isolate source: Human, ribotype: 027) | 0.06 mg/L | 2 mg/L | < 1 ng/mL | 1 mg/L | 1 mg/L | 4 mg/L | 0.06 mg/L | > 128 mg/L | 4 mg/L
Clostridioides difficile PCR ribotype 027 isolate #124 (European region: East, country: Romania, isolate source: Human, ribotype: 027) | 0.03 mg/L | 2 mg/L | > 32000 ng/mL | 0.5 mg/L | 1 mg/L | 2 mg/L | < 0.03 mg/L | 16 mg/L | 8 mg/L
Clostridioides difficile PCR ribotype 027 isolate #127 (European region: South, country: Italy, isolate source: Human, ribotype: 027) | 0.03 mg/L | 2 mg/L | 16000 ng/mL | 0.5 mg/L | 1 mg/L | 4 mg/L | 0.06 mg/L | 16 mg/L | 4 mg/L
Clostridioides difficile PCR ribotype 027 isolate #128 (European region: South, country: Italy, isolate source: Human, ribotype: 027) | 0.03 mg/L | 2 mg/L | 16000 ng/mL | 0.5 mg/L | 1 mg/L | 4 mg/L | 0.06 mg/L | 32 mg/L | 4 mg/L
Clostridioides difficile PCR ribotype 027 isolate #129 (European region: East, country: Poland, isolate source: Human, ribotype: 027) | 0.03 mg/L | 2 mg/L | 16000 ng/mL | 0.5 mg/L | 4 mg/L | 4 mg/L | 0.06 mg/L | 8 mg/L | 2 mg/L
Clostridioides difficile PCR ribotype 027 isolate #130 (European region: East, country: Poland, isolate source: Human, ribotype: 027) | 0.03 mg/L | 2 mg/L | < 1 ng/mL | 1 mg/L | 4 mg/L | 4 mg/L | 0.06 mg/L | 8 mg/L | 4 mg/L
Clostridioides difficile PCR ribotype 027 isolate #131 (European region: East, country: Poland, isolate source: Human, ribotype: 027) | 0.03 mg/L | 2 mg/L | < 1 ng/mL | 1 mg/L | 4 mg/L | 8 mg/L | 0.06 mg/L | 8 mg/L | 4 mg/L
Clostridioides difficile PCR ribotype 027 isolate #132 (European region: East, country: Poland, isolate source: Human, ribotype: 027) | 0.03 mg/L | 2 mg/L | < 1 ng/mL | 1 mg/L | 4 mg/L | 8 mg/L | 0.06 mg/L | 8 mg/L | 4 mg/L
Clostridioides difficile PCR ribotype 027 isolate #133 (European region: East, country: Poland, isolate source: Human, ribotype: 027) | 0.03 mg/L | 2 mg/L | < 1 ng/mL | 1 mg/L | 4 mg/L | 8 mg/L | 0.06 mg/L | 8 mg/L | 4 mg/L
Clostridioides difficile PCR ribotype 027 isolate #134 (European region: East, country: Poland, isolate source: Human, ribotype: 027) | 0.03 mg/L | 2 mg/L | < 1 ng/mL | 1 mg/L | 4 mg/L | 8 mg/L | 0.06 mg/L | 8 mg/L | 4 mg/L
Clostridioides difficile PCR ribotype 029 isolate #135 (European region: South, country: Spain, isolate source: Human, ribotype: 029) | 0.06 mg/L | 2 mg/L | < 1 ng/mL | 1 mg/L | 0.25 mg/L | 2 mg/L | < 0.03 mg/L | 16 mg/L | 2 mg/L
Clostridioides difficile PCR ribotype 029 isolate #311 (European region: West, country: Netherlands, isolate source: Animal, ribotype: 029) | 0.015 mg/L | 2 mg/L | < 1 ng/mL | 0.5 mg/L | < 0.125 mg/L | 2 mg/L | < 0.03 mg/L | 2 mg/L | 2 mg/L
Clostridioides difficile PCR ribotype 031 isolate #136 (European region: North, country: UK, isolate source: Human, ribotype: 031) | 0.06 mg/L | 2 mg/L | < 1 ng/mL | 1 mg/L | 0.25 mg/L | 2 mg/L | 0.06 mg/L | 2 mg/L | 4 mg/L
Clostridioides difficile PCR ribotype 031 isolate #137 (European region: North, country: UK, isolate source: Human, ribotype: 031) | 0.06 mg/L | 2 mg/L | < 1 ng/mL | 0.5 mg/L | 0.25 mg/L | 2 mg/L | 0.06 mg/L | 4 mg/L | 4 mg/L
Clostridioides difficile PCR ribotype 031 isolate #138 (European region: North, country: UK, isolate source: Human, ribotype: 031) | 0.06 mg/L | 2 mg/L | < 1 ng/mL | 1 mg/L | < 0.125 mg/L | 2 mg/L | < 0.03 mg/L | 2 mg/L | 2 mg/L
Clostridioides difficile PCR ribotype 032 isolate #139 (European region: South, country: Greece, isolate source: Human, ribotype: 032) | 0.008 mg/L | 2 mg/L | < 1 ng/mL | 1 mg/L | < 0.125 mg/L | 2 mg/L | 0.06 mg/L | > 128 mg/L | 1 mg/L
Clostridioides difficile PCR ribotype 033 isolate #312 (European region: West, country: Netherlands, isolate source: Animal, ribotype: 033) | 0.008 mg/L | 2 mg/L | < 1 ng/mL | 0.25 mg/L | < 0.125 mg/L | 2 mg/L | 0.25 mg/L | 0.5 mg/L | 0.5 mg/L
Clostridioides difficile PCR ribotype 035 isolate #140 (European region: East, country: Poland, isolate source: Human, ribotype: 035) | 0.004 mg/L | 2 mg/L | < 1 ng/mL | 1 mg/L | < 0.125 mg/L | 2 mg/L | < 0.03 mg/L | 0.25 mg/L | 2 mg/L
Clostridioides difficile PCR ribotype 035 isolate #141 (European region: North, country: UK, isolate source: Human, ribotype: 035) | 0.06 mg/L | 2 mg/L | < 1 ng/mL | 0.25 mg/L | 1 mg/L | 2 mg/L | 0.06 mg/L | 4 mg/L | 2 mg/L
Clostridioides difficile PCR ribotype 035 isolate #142 (European region: North, country: UK, isolate source: Human, ribotype: 035) | 0.06 mg/L | 2 mg/L | < 1 ng/mL | 0.5 mg/L | < 0.125 mg/L | 2 mg/L | < 0.03 mg/L | 8 mg/L | 2 mg/L
Clostridioides difficile PCR ribotype 035 isolate #143 (European region: North, country: UK, isolate source: Human, ribotype: 035) | 0.015 mg/L | 2 mg/L | < 1 ng/mL | 0.5 mg/L | < 0.125 mg/L | 2 mg/L | < 0.03 mg/L | 0.25 mg/L | 2 mg/L
Clostridioides difficile PCR ribotype 035 isolate #313 (European region: West, country: Netherlands, isolate source: Animal, ribotype: 035) | 0.015 mg/L | 2 mg/L | < 1 ng/mL | 0.5 mg/L | 0.25 mg/L | 4 mg/L | < 0.03 mg/L | 4 mg/L | 2 mg/L
Clostridioides difficile PCR ribotype 037 isolate #144 (European region: North, country: Sweden, isolate source: Human, ribotype: 037) | 0.015 mg/L | 1 mg/L | < 1 ng/mL | 1 mg/L | < 0.125 mg/L | 2 mg/L | < 0.03 mg/L | 16 mg/L | 2 mg/L
Clostridioides difficile PCR ribotype 038 isolate #145 (European region: North, country: Sweden, isolate source: Human, ribotype: 038) | 0.015 mg/L | 2 mg/L | < 1 ng/mL | 1 mg/L | < 0.125 mg/L | 2 mg/L | < 0.03 mg/L | 16 mg/L | 1 mg/L
Clostridioides difficile PCR ribotype 038 isolate #146 (European region: North, country: Sweden, isolate source: Human, ribotype: 038) | 0.03 mg/L | 1 mg/L | < 1 ng/mL | 1 mg/L | < 0.125 mg/L | 2 mg/L | < 0.03 mg/L | 8 mg/L | 1 mg/L

Record cards, from the list above. Order of values: minimum inhibitory concentration (fidaxomicin)	minimum inhibitory concentration (linezolid)	minimum inhibitory concentration (rifampicin)	minimum inhibitory concentration (vancomycin)	minimum inhibitory concentration (metronidazole)	minimum inhibitory concentration (meropenem)	minimum inhibitory concentration (tigecycline)	minimum inhibitory concentration (clindamycin)	minimum inhibitory concentration (imipenem)
Clostridioides difficile PCR ribotype 027 isolate #132 (European region: East, country: Poland, isolate source: Human, ribotype: 027) is listed with 0.03 mg/L	2 mg/L	< 1 ng/mL	1 mg/L	4 mg/L	8 mg/L	0.06 mg/L	8 mg/L	4 mg/L
Clostridioides difficile PCR ribotype 038 isolate #145 (European region: North, country: Sweden, isolate source: Human, ribotype: 038) is listed with 0.015 mg/L	2 mg/L	< 1 ng/mL	1 mg/L	< 0.125 mg/L	2 mg/L	< 0.03 mg/L	16 mg/L	1 mg/L
